Test results taken from article doi:10.1101/2023.10.18.562911.
Residue numbers refer to the chain shown, from its start. No constants are given. Whether binding was seen depends on the method and setting. Binding seen in cells or lysates may run through a third protein. Some entries that bind do so weakly or less than the wild type. For some assays here: Sequences can lack the tags named with a protein.

Assays:
Assay in all cases: co-IP
[1] = biological target: T1, yKu70 Y569A (expressed in yeast) (S. cerevisiae) (UniProt P32807)
T1 sequence: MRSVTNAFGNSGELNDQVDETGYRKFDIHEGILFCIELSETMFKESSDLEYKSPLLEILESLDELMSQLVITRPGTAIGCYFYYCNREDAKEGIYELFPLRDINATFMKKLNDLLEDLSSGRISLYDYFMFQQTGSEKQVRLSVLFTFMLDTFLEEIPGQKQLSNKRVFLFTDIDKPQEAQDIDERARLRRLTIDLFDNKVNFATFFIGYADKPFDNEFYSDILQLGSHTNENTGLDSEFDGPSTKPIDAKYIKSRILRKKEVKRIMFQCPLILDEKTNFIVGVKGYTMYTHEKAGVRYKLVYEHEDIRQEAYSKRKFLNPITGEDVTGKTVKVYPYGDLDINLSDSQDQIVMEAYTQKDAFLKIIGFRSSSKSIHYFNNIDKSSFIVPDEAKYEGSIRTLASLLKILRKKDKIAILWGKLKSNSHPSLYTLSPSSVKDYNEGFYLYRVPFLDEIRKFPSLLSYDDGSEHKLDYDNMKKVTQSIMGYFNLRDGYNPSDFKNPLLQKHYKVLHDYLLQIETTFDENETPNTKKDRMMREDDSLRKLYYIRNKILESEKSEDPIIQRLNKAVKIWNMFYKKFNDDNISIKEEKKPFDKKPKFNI

[2] = biological target: T2, yKu70 4A mutant (expressed in yeast) (S. cerevisiae) (UniProt P32807)
T2 sequence: T1 sequence with F576A, Y577A, F580A

[3] = biological target: T3, yKu70 3A mutant (expressed in yeast) (S. cerevisiae) (UniProt P32807)
T3 sequence: T1 sequence with A569Y, F576A, Y577A, F580A

[4] = biological target: T4, yKu70 F576AY577A (expressed in yeast) (S. cerevisiae) (UniProt P32807)
T4 sequence: T1 sequence with A569Y, F576A, Y577A

[5] = biological target: T5, yKu70 F580A (expressed in yeast) (S. cerevisiae) (UniProt P32807)
T5 sequence: T1 sequence with A569Y, F580A

[6] = biological target: T6, Xrs2 (epitope-tagged, expressed in yeast) (S. cerevisiae) (UniProt P33301)
T6 sequence: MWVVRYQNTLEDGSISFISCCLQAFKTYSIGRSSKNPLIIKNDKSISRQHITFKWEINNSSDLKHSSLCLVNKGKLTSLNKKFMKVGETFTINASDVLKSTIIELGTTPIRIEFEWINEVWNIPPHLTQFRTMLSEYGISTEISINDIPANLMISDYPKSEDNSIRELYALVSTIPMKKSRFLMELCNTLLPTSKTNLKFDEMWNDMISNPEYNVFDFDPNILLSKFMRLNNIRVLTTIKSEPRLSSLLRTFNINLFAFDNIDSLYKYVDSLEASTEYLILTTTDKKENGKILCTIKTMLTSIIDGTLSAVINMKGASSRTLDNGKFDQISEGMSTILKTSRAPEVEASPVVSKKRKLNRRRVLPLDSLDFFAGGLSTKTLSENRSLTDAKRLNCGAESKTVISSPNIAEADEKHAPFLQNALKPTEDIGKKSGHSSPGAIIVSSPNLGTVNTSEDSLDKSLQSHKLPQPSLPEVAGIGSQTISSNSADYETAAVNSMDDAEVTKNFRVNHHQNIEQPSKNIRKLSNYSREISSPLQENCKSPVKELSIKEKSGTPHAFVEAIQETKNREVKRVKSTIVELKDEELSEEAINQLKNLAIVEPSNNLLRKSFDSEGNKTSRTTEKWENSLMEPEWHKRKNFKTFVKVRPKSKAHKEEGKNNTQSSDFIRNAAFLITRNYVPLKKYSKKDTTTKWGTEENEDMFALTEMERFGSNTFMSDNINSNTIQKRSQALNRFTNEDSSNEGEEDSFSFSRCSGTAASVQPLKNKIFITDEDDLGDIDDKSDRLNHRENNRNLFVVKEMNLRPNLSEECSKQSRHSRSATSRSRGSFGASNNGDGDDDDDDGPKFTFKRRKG

binding [1] | binding [2] | binding [3] | binding [4] | binding [5] | binding [6] | Substance
no binding | no binding | no binding | no binding | no binding |  | histone H3 dimethylated at Lys36 (yeast, endogenous) (from UniProt P61830 1-136)
no binding | no binding | no binding | no binding | no binding | binds | histone H3 (yeast, endogenous) (from UniProt P61830 1-136)
